US20260207623A1, “USE OF ESTETROL IN HEPATICALLY IMPAIRED PATIENTS” (ESTETRA SRL, priority 2022, published 2026)
At least one read-out could not be matched to a standard name with certainty. For at least one compound, name, drawing or mass did not settle the structure.

Assay: Phase 1 pharmacokinetic study of a single oral dose of 20 mg E4 monohydrate in female subjects with normal hepatic function and mild, moderate or severe hepatic impairment (plasma, LC-MS/MS, non-compartmental analysis)
Format: in vivo, human
Conditions: for Vz/F, Min, Max / AUC0-24 h, Min, Max / AUCinf, Min, Max / AUClast, Min, Max / Cmax, Min, Max / T1/2, Min, Max / Tmax, Min, Max / λz, Min, Max: single oral dose 20 mg E4 monohydrate, plasma
Method: This was a Phase 1, multi-centre, open-label, PK, and safety study of a single oral dose of 20 mg E4 monohydrate in female subjects with normal hepatic function (Group 1), mild hepatic impairment (Group 2), moderate hepatic impairment (Group 3), and severe hepatic impairment (Group 4), as defined using the Child-Pugh classification at Screening.
The study consisted of an eligibility Screening period (within 28 days prior to study drug administration), an Assessment Period with in-house period and outpatient visits (including a single oral dose of 20 mg E4 on Day 1), and a follow up visit. All subjects were confined to the study site from Day-1 (the day before dosing) until Day 4 and returned to the site every day from Day 5 to Day 9. Alternatively, the subjects could stay for a prolonged in-house period in agreement with the Investigator. The follow-up visit occurred on Day 14 (+2 days).
All subjects arrived at the study site in the morning of Day-1 in a fasted state (no food for at least 8 h, water was allowed) to have the scheduled assessments performed in order to confirm eligibility as outlined in the inclusion and exclusion criteria (Section 2.3.1 and Section 2.3.2, respectively). In the morning of Day 1 following an overnight fast, the subjects received oral dosing of 20 mg E4 monohydrate and remained at the site. Study-related assessments were performed at time points indicated in the Schedule of Assessments in Table 2.
Serial blood sampling for PK assessments started on Day 1 and proceeded until Day 9 according to the Pharmacokinetic Sampling Schedule presented in Table 3.
Each enrolled subject was to receive a single oral dose of 20 mg of E4 (estetrol) as monohydrate as a film-coated tablet.
Study drug was administered to subjects in the morning after an overnight fast of at least 8 h.
Calculation of non-compartmental PK parameters were done using WinNonlin™ Professional, Version 6.3 or higher.
The primary PK parameters to be analyzed for E4 in plasma: • Cmax=maximum observed plasma concentration • AUCinf=area under the concentration-time curve (AUC) from time zero extrapolated to infinity
The analysis of E4 and the metabolites E4-3-glucuronide and E4-16-glucuronide in plasma samples were performed at the Bioanalytical Laboratory of the CRO using a validated liquid chromatography-mass spectrometry/mass spectrometry method.
Individual and mean plasma concentrations at each sampling time point for E4 are presented by listings and descriptive summary statistics including means, geometric means (GMs), medians, ranges, standard deviations (SD) and coefficients of variation (CV). Individual, mean and/or median concentrations per hepatic function group were plotted versus time on semilogarithmic scales.
PK parameters were calculated by non-compartmental analysis. PK parameters were analysed using descriptive statistics and are presented by hepatic function group.
Analysis of variance (ANOVA) were used to compare primary PK parameters of E4 (Cmax and AUCinf) between subjects with hepatic impairment and subjects with normal hepatic function in an exploratory approach, using the log-transformed value of each PK parameter as dependent variable, and the hepatic impairment group (normal, mild, moderate, and severe) as a fixed classification factor. Geometric least squares means were used to calculate the ratios of primary PK parameters for each hepatic impairment group to those in the control group, along with 90% confidence intervals (CIs).
Additionally, the impact of age and BMI on the effect of hepatic impairment were evaluated using an ANOVA model similar as the ANOVA model described above, but with the interaction between each factor and the hepatic impairment group included as an additional factor.
The relationship between log-transformed PK parameters (Cmax and AUCinf) and continuous parameters (albumin, total bilirubin, and prothrombin time) used for the Child-Pugh score was explored by a linear regression approach. […]

Row | SMILES | AUC0-24 h, Min, Max (Mild hepatic impairment) | AUCinf, Min, Max (Mild hepatic impairment) | AUClast, Min, Max (Mild hepatic impairment) | Cmax, Min, Max (Mild hepatic impairment) | T1/2, Min, Max (Mild hepatic impairment) | Tmax, Min, Max (Mild hepatic impairment) | λz, Min, Max (Mild hepatic impairment) | AUC0-24 h, Min, Max (Moderate hepatic impairment) | AUCinf, Min, Max (Moderate hepatic impairment) | AUClast, Min, Max (Moderate hepatic impairment) | Cmax, Min, Max (Moderate hepatic impairment) | T1/2, Min, Max (Moderate hepatic impairment) | Tmax, Min, Max (Moderate hepatic impairment) | λz, Min, Max (Moderate hepatic impairment) | AUC0-24 h, Min, Max (Normal hepatic function) | AUCinf, Min, Max (Normal hepatic function) | AUClast, Min, Max (Normal hepatic function) | Cmax, Min, Max (Normal hepatic function) | T1/2, Min, Max (Normal hepatic function) | Tmax, Min, Max (Normal hepatic function) | other results
1 | C[C@]12CC[C@@H]3c4ccc(O)cc4CC[C@H]3[C@@H]1[C@@H](O)[C@@H](O)[C@@H]2O [E4, 1,3,5 (10)-estratrien-3,15alpha, 16alpha, 17beta-tetrol] |  |  |  |  |  |  |  |  |  |  |  |  |  |  |  |  |  |  |  |  | Vz/F, Min, Max (Mild hepatic impairment): 1805, 14645; Vz/F, Min, Max (Moderate hepatic impairment): 1564, 9558; Vz/F, Min, Max (Normal hepatic function): 2921, 11539; Vz/F, Min, Max (Severe hepatic impairment): 599, 1814; time to peak plasma concentration (Cmax) after oral administration (any of the subjects, independent from hepatic function status): ≤ 2 h
2 | CC12CCC3c4ccc(OC5OC(C(=O)O)C(O)C(O)C5O)cc4CCC3C1C(O)C(O)C2O (stereo not shown) [E4-3-glucuronide, estetrol-3-glucuronide] | 244.2, 460.9 | 398.7, 654.9 | 378.4, 644.4 | 66.50, 168.00 | 13.43, 40.13 | 0.23, 1.92 | 0.017, 0.052 | 157.0, 411.4 | 167.9, 515.7 | 164.8, 505.7 | 41.40, 200.00 | 7.06, 38.16 | 0.50, 1.97 | 0.018, 0.098 | 155.0, 419.3 | 251.1, 725.5 | 243.2, 708.2 | 27.40, 127.00 | 14.83, 29.75 | 0.47, 5.98 | λz, Min, Max (Normal hepatic function): 0.023, 0.047; AUC0-24 h, Min, Max (Severe hepatic impairment): 211.5, 568.7; AUCinf, Min, Max (Severe hepatic impairment): 218.5, 855.8; AUClast, Min, Max (Severe hepatic impairment): 211.2, 847.9; Cmax, Min, Max (Severe hepatic impairment): 70.20, 130.00; T1/2, Min, Max (Severe hepatic impairment): 3.68, 13.99; Tmax, Min, Max (Severe hepatic impairment): 0.25, 1.00; λz, Min, Max (Severe hepatic impairment): 0.050, 0.189
3 | CC12CCC3c4ccc(O)cc4CCC3C1C(O)C(OC1OC(C(=O)O)C(O)C(O)C1O)C2O (stereo not shown) [E4-16-glucuronide] | 706.8, 1489.4 | 1192.1, 1735.8 | 1079.4, 1699.0 | 385.00, 1030.00 | 17.35, 32.24 | 0.23, 1.92 | 0.021, 0.040 | 699.3, 1744.5 | 761.8, 2046.8 | 743.4, 2010.3 | 431.00, 1130.00 | 6.93, 24.25 | 0.50, 1.48 | 0.029, 0.100 | 349.9, 1012.3 | 474.8, 1599.7 | 440.8, 1560.6 | 105.00, 699.00 | 10.53, 27.88 | 0.47, 1.00 | λz, Min, Max (Normal hepatic function): 0.025, 0.066; AUC0-24 h, Min, Max (Severe hepatic impairment): 1046.0, 5542.7; AUCinf, Min, Max (Severe hepatic impairment): 1046.7, 6482.2; AUClast, Min, Max (Severe hepatic impairment): 1041.8, 6457.4; Cmax, Min, Max (Severe hepatic impairment): 583.00, 1660.00; T1/2, Min, Max (Severe hepatic impairment): 2.82, 21.35; Tmax, Min, Max (Severe hepatic impairment): 0.25, 1.00; λz, Min, Max (Severe hepatic impairment): 0.032, 0.246
